In PubChem BioAssay AID2685 (National Center for Advancing Translational Sciences (NCATS), 2010):
The list shows a part of the results. Further columns of the screen follow, without active or inactive calls. The list favours compounds with an active or inconclusive main result. Words in brackets tell the shape of the fitted curve; partial curves, single points and poor fits give uncertain potencies.

Assay: qHTS Assay for Lipid Storage Modulators in Drosophila S3 Cells;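 for cell number change: cells counted by Cell Tracker Red CMTPX staining in the red channel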
Conditions: BODIPY lipid droplet fluorescence, 18-24 h; for cell number change: measured here: cell count max response, cells fed with added oleic acid
Method in brief: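 Drosophila S3 cells loaded with oleic acid (400 uM, as added) and compounds at several concentrations; lipid droplets imaged by 488-nm laser-scanning cytometry, 500–530 nm intensity and object ratio to cell channel. Percent activity normalized to 20 uM Triacsin C.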

[1] = measured here: cell number channel AC50, cells fed with added oleic acid
[2] = measured here: lipid fluorescence (Fed channel) AC50, cells fed with added oleic acid

| SMILES | cell number change [%] | AC50 [1] | AC50 [2] |
| --- | --- | --- | --- |
| CNC(=O)CC1C(=O)N(Cc2ccccc2)C(=S)N1NC(=O)c1cccc(F)c1 (stereo not given) | 32.6 | 25.9 µM [rising, single point] | – |
| O=C(NCC1COc2ccccc2O1)c1ccco1 (stereo not given) | 17.9 | – | 29.1 µM [rising, single point] |
| COc1ccc(CNC(=O)C2CSCCS2)cc1 (stereo not given) | -13.8 | 6.51 µM [falling, single point] | 6.51 µM [falling, single point] |
| Cc1ccc(S(=O)(=O)CCSC(=N)N)cc1 | -26.9 | – | 23.1 µM [falling, partial curve, poor fit] |
| COc1ccc(CC(NC(C)=O)C(=O)NC2CCN(C(=O)c3ccncc3)CC2)cc1OC (stereo not given) | -24.4 | – | 5.17 µM [rising, single point] |
| CCOC(=O)c1cc2c(=O)n3cccc(C)c3nc2n(Cc2ccco2)c1=NC(=O)c1cccnc1 | – | – | 6.51 µM [rising, single point] |
| Cc1ccc(S(=O)(=O)N2CCC(C(=O)NNC(=O)c3ccccc3)CC2)cc1 | 26.4 | – | – |
| Cc1cc(C(=O)N2CCN(Cc3ccc4c(c3)OCO4)CC2)cs1 | -8.88 | – | 1.16 µM [rising, single point] |
| O=C1/C(=C/c2ccc(O)cc2)SC(=S)N1CC1CCCO1 (stereo not given) | -24.6 | – | 29.1 µM [falling, single point] |
| CN(C)S(=O)(=O)N1CCN(c2ccnc3cc(Cl)ccc23)CC1 | -17.8 | – | 16.4 µM [falling, single point] |
| CC(C)C(NC(=O)c1ccccc1F)C(=O)NCc1ccccc1 (stereo not given) | -5.65 | – | 0.411 µM [falling, single point] |
| Cn1c(=O)c2c(nc(CN3CCC(C(N)=O)CC3)n2CCc2ccccc2)n(C)c1=O | 7.24 | – | 0.731 µM [falling, single point] |
| C=CCNC(=O)c1ccc(-c2ccc([N+](=O)[O-])cc2)o1 | 65.6 | 6.51 µM [rising, partial curve] | 29.1 µM [rising, single point] |
| O=c1oc2c3c(nn2c2ccccc12)CCCC3 | 6.26 | – | – |
| Cc1ccc(N2CCN(C(=O)CCc3nc4ccccc4[nH]3)CC2)c(C)c1 | -0.832 | – | 29.1 µM [falling, single point] |
| C/C(=C\c1ccccc1)C(=O)NCCN1CCOCC1 | -44.8 | – | – |
| O=C(c1cccc(S(=O)(=O)N2CCOCC2)c1)N1CCN(S(=O)(=O)c2cccc([N+](=O)[O-])c2)CC1 | – | 5.17 µM [rising, single point] | – |
| CN1CCC(=NNC(=O)C(=O)Nc2ccc(F)cc2)CC1 | 8.1 | – | – |
| COC(=O)c1cc(NC(=O)CN(C)Cc2ccccc2)cc(C(=O)OC)c1 | 11.5 | 6.51 µM [falling, single point] | 6.51 µM [falling, single point] |
| COc1ccc(-n2nc3c(c2NC(=O)c2ccccc2S(=O)(=O)C(F)F)CS(=O)(=O)C3)cc1 | 19.7 | – | 20.6 µM [rising, single point] |

| SMILES | cell number change [%] | AC50 [1] | AC50 [2] |
| --- | --- | --- | --- |
| COc1ccc(C(=O)N2CCN(c3c(C)cccc3C)CC2)cc1OC | 4.17 | – | 29.1 µM [rising, partial curve] |
| CC(=O)N1c2ccc(S(=O)(=O)N3CCCC(C(=O)N4CCCCC4)C3)cc2CC1C (stereo not given) | -0.599 | – | 0.58 µM [falling, single point] |
| CCNC(=O)COc1ccc(CC)cc1 | 6.9 | – | 18.4 µM [falling, single point] |
| Cc1csc(-c2cnn(-c3ccccc3)c2NC(=O)c2ccc(C(F)(F)F)cc2)n1 | -13 | – | 4.61 µM [falling, single point] |
| O=C(CCSc1ccccc1)NC(=O)COC(=O)C1CCCCC1 | -63.2 | 23.1 µM [falling, single point] | 29.1 µM [falling, single point] |
| O=C(CCNC(=O)c1ccc(Cl)cc1)NC1CCCc2ccccc21 (stereo not given) | -9.97 | 0.146 µM [falling, full curve, poor fit] | 2.59 µM [falling, single point] |
| Cc1cc(OC(F)F)ccc1NC(=S)NCCc1ccccc1 | -4.46 | 1.3 µM [rising, partial curve] | – |
| O=C(C1COc2ccccc2O1)N1CCn2c(nc3ccccc32)C1 (stereo not given) | -1.9 | – | 0.651 µM [falling, full curve] |
| COc1ccc(C(=O)Oc2coc(CSc3nnc(NC(=O)c4cccs4)s3)cc2=O)cc1 | 14.7 | – | – |
| CCCC1(c2ccccc2)NC(=O)N(CC(=O)Nc2cc(S(=O)(=O)N3CCOCC3)ccc2Cl)C1=O (stereo not given) | 1.62 | – | – |
| Cn1c(SCCOc2ccccc2F)nc2ccccc2c1=O | 9.13 | – | – |
| Cc1ccc(NC(=O)c2ccc(S(=O)(=O)N3CCCC3)cc2)nc1 | 10.1 | – | – |
| CCOC(=O)N/N=C/c1c(F)c(F)c(F)c(F)c1F | -12 | 4.11 µM [falling, single point] | 4.61 µM [falling, single point] |
| COc1ccc(OC(C)C(=O)Nc2cccc(OC)c2)cc1 (stereo not given) | – | 6.51 µM [falling, single point] | – |
| CCC(C)NC(=O)CS(=O)Cc1nc(-c2cccc(OC)c2)oc1C (stereo not given) | -26 | – | 11.6 µM [rising, partial curve, poor fit] |
| CCN(CC)c1ccc(/C=N/NC(=O)Nc2ccccc2)cc1 | -39.6 | 29.1 µM [falling, single point] | – |
| O=C(c1ccc(Cl)c(S(=O)(=O)N2CCOCC2)c1)N1CCN(c2ccccc2)CC1 | -8.67 | – | 0.103 µM [falling, full curve, poor fit] |
| O=C(COC(=O)c1cc(=O)[nH]c2ccccc12)Nc1ccc(Cl)cn1 | 39.9 | 9.2 µM [rising, partial curve, poor fit] | 8.2 µM [rising, partial curve, poor fit] |
| O=C1C=C(c2ccc3ccccc3c2)C[C@@H](c2ccc(Cl)cc2)C1 | 6.14 | – | 0.651 µM [rising, full curve] |
| CC(C)N(C(=O)CSc1nnc(Cn2nnc3ccccc32)n1C)C(C)C | -14.3 | – | 18.4 µM [falling, partial curve] |

Whole records as entered above.
`Cc1ccc(S(=O)(=O)CCSC(=N)N)cc1` as listed: cell number change [%]: -26.9; AC50 [2]: 23.1 µM [falling, partial curve, poor fit]
`CN1CCC(=NNC(=O)C(=O)Nc2ccc(F)cc2)CC1` as listed: cell number change [%]: 8.1
`CC(=O)N1c2ccc(S(=O)(=O)N3CCCC(C(=O)N4CCCCC4)C3)cc2CC1C` (stereo not given) as listed: cell number change [%]: -0.599; AC50 [2]: 0.58 µM [falling, single point]
`CCCC1(c2ccccc2)NC(=O)N(CC(=O)Nc2cc(S(=O)(=O)N3CCOCC3)ccc2Cl)C1=O` (stereo not given) as listed: cell number change [%]: 1.62

Remaining list, next part.

| SMILES | cell number change [%] | AC50 [1] | AC50 [2] |
| --- | --- | --- | --- |
| CCOC(=O)c1c(-c2ccc(OC)cc2)csc1/N=C/N(C)C | – | 2.06 µM [rising, single point] | – |
| CCc1ccc(C(=O)COC(=O)c2n[nH]c3ccccc23)cc1 | 9.63 | – | – |
| CN(Cc1ccccc1)C(=O)COC(=O)c1cc(-c2ccc(Cl)s2)nc2ccccc12 | 60.6 | 18.4 µM [rising, single point] | 5.8 µM [rising, full curve] |
| COc1cc(CC(=O)NCCc2ccc(OCc3ccccc3)cc2)c([N+](=O)[O-])cc1OC | 6.21 | 1.64 µM [rising, partial curve, poor fit] | – |
| CCOc1ccc2nc(SCC(=O)Nc3cc(C)on3)c(C)cc2c1 | 10.3 | – | 16.4 µM [rising, partial curve] |
| C/C(=N\NC(=O)c1cccc(S(=O)(=O)N2CCCC2)c1)c1ccc(F)cc1 | – | – | 2.91 µM [rising, single point] |
| Cc1ccccc1NC(=O)NCc1ccc2c(c1)OCO2 | -3.18 | – | – |
| O=C(c1cc(S(=O)(=O)N2CCCCC2)c(Cl)cc1N1CCOCC1)N1CCOCC1 | 37.9 | 1.03 µM [rising, partial curve, poor fit] | 8.2 µM [rising, partial curve, poor fit] |
| COc1ccc(OC)c(NC(=O)C2=C(C)NC(=O)NC2c2cccs2)c1 (stereo not given) | – | 0.58 µM [rising, single point] | 0.651 µM [rising, single point] |
| O=C(NCCC1CCCCN1S(=O)(=O)c1ccccc1)C(=O)Nc1ccccc1 (stereo not given) | -25.2 | – | 29.1 µM [falling, single point] |
| CCN(CC)S(=O)(=O)c1ccc(C(=O)N2CCc3ccccc32)cc1 | – | 0.731 µM [falling, single point] | – |
| Cc1noc(C)c1CSc1cc(C)c2ccccc2n1 | -22.8 | – | 4.61 µM [rising, full curve, poor fit] |
| CN1C(=O)N(C)C2(c3ccccc3)NNC(N)=NC12c1ccccc1 (stereo not given) | 19 | – | 0.82 µM [falling, single point] |
| O=C1/C(=C/c2cccs2)Sc2ccccc21 | -19.1 | – | 18.4 µM [falling, single point] |
| Cc1ccc2c(c1)N(CC(=O)NC1CCC(C)CC1)C(=O)CO2 (stereo not given) | 1.12 | 0.146 µM [rising, full curve, poor fit] | 0.82 µM [rising, full curve] |
| CCN1C(=O)[C@H]2[C@@H](c3ccc(C)cc3)N3C(=O)N(c4cccc(Cl)c4)C(=O)[C@@]3(CC(C)C)[C@H]2C1=O | 46.1 | 13 µM [rising, single point] | – |
| NS(=O)(=O)c1ccc(NC(=O)CCc2ccccc2)cc1 | 13.8 | – | 29.1 µM [rising, single point] |
| CC(=O)c1cccc(NS(=O)(=O)c2ccc3c(c2)oc(=O)n3C)c1 | 220 | 10.3 µM [rising, partial curve] | 29.1 µM [rising, single point] |
| C=CCNC1=C(Cl)C(=O)N(c2cccc(Cl)c2Cl)C1=O | -14.5 | – | 0.00461 µM [rising, full curve, poor fit] |
| O=C(COC(=O)/C=C/c1ccccc1)NC1CC1 | 13.3 | – | 16.4 µM [rising, single point] |
